This is one part of the list.

Amino acid sequences for entries named in this document (tags omitted).
UniProt Q0JBA9, entry or part of it: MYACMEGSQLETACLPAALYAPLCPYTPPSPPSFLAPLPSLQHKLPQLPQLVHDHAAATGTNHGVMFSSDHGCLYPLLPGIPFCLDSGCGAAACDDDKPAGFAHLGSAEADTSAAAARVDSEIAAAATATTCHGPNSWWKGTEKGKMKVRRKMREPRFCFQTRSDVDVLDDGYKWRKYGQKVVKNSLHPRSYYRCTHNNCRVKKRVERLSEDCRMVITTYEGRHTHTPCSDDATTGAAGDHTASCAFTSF

Our source for the binding signal values is article PMC7819943, “Rice protein-binding microarrays: a tool to detect cis-acting elements near promoter regions in rice”.

The experiment addresses OsWRKY34 (Oryza sativa, UniProt Q0JBA9 1-250). Nature of the experiment: protein-binding microarray (RPBM); PBS, 2% BSA, 51.3 ng/ul salmon testes DNA, 50 uM zinc acetate, 200 nM TF, 25 C, 1 h; high values mean tight binding. The following applies: protein: recombinant; tags: N-terminal polyhistidine and DsRed monomer fusion (pET32a); label: CyDye5-dUTP incorporated in the synthesized complementary strand; 3' TTTTT single-stranded linker to array surface; dsDNA, one strand shown. In a few lines: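 The binding signal is fluorescence intensity per array feature (arbitrary units). Readings came from an Axon 4000B scanner after a washed, 2% BSA-blocked, double-stranded custom Agilent array had been incubated for 1 h at 25 °C with 200 nM protein and 50 µM zinc acetate. The protein was a Ni–NTA-purified transcription factor fused N-terminally to polyhistidine and DsRed, expressed in E. coli BL21-CodonPlus.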
As to “GAGCTCCAAAGCTACGGTTTTTTTTTCTCTTTCTTTCTCACGGAGTCACCTAGTGCAG”, the binding signal is 9080 fluorescence intensity (a.u.).

Turning to “CTCACACACACACTCTGCACTGCAGAAACCGGCTCGACCACGGAGTCACCTAGTGCAG”, the binding signal was 11400 fluorescence intensity (a.u.).

As for “CTCGGCAACAAATTTTTCATCGGTTTGTCTGTGTTTAGTTCGGAGTCACCTAGTGCAG”, the binding signal is 11100 fluorescence intensity (a.u.).

As for “TTTGCTAATACAATATTCTCGGTCAACATGCTGCATATCGCGGAGTCACCTAGTGCAG”, the binding signal is 10200 fluorescence intensity (a.u.).

“TTTCTCCTTGGAAAGTGGGCGGGCTGGCATTGCATTGCCTCGGAGTCACCTAGTGCAG”: the binding signal is 12800 fluorescence intensity (a.u.).

As for “TACTCTACTGCCTTAACTATTTTTCCTTTTGTATTATACTCGGAGTCACCTAGTGCAG”, the binding signal is 8470 fluorescence intensity (a.u.).

With “TTGTCCACTTGGCCCGTAAGGCGTAAGCAGCGACACCCGCCGGAGTCACCTAGTGCAG”, the binding signal is 8410 fluorescence intensity (a.u.).

In the case of “ATGTATTGCATAACTGTGTTGACTATTGTTGACTTGTGTACGGAGTCACCTAGTGCAG”, the binding signal is 11000 fluorescence intensity (a.u.).

With “CTCGTATTGGGTTGTTATATGGAAACTTCTTTCAATATTGCGGAGTCACCTAGTGCAG”, the binding signal is 8410 fluorescence intensity (a.u.).

With “AGTGCGCTCATGTGACCTCTAATTTCTTGCTTTACTGCCTCGGAGTCACCTAGTGCAG”, the binding signal was 10000 fluorescence intensity (a.u.).

As for “GCCTCACCCTCACCGCCACCCCGCCGCCGCCGATCTACACCGGAGTCACCTAGTGCAG”, the binding signal was 13000 fluorescence intensity (a.u.).

On to “CCCTAATCGACGGTTGGAGTTCTGCTGCCGCTCACTTAACCGGAGTCACCTAGTGCAG”, for which the binding signal is 9270 fluorescence intensity (a.u.).

On to “GGCCCAACACATCAGGCCTTGGACTCGTCTCTTTCCTCGGCGGAGTCACCTAGTGCAG”, for which the binding signal is 8400 fluorescence intensity (a.u.).

Turning to “CCCTTGAGTTTTTATTTTGATCTCTTCTATCCCTATTCCGCGGAGTCACCTAGTGCAG”, the binding signal was 12600 fluorescence intensity (a.u.).

Turning to “AAATCCGTGCTGCTTCTGATCCTTGCAGCCACTTTGCTTCCGGAGTCACCTAGTGCAG”, the binding signal was 8620 fluorescence intensity (a.u.).

Regarding “TAACTATTCTACCTAATTACTTAACCCCTAAACTCTTTCACGGAGTCACCTAGTGCAG”, the binding signal was 8060 fluorescence intensity (a.u.).

With “AGTCTATATCACTCATTCAATTCCTACGTTTTTCAAATGGCGGAGTCACCTAGTGCAG”, the binding signal was 9010 fluorescence intensity (a.u.).

With “TTTACTGGTTCTCTGTGTTGTTCATTATTTTTTCATCTTTCGGAGTCACCTAGTGCAG”, the binding signal was 12000 fluorescence intensity (a.u.).

Regarding “GATGCCTGCCAATCTGCCATGCCATTATATCTGCAGTTCTCGGAGTCACCTAGTGCAG”, the binding signal was 12000 fluorescence intensity (a.u.).

As for “CATCGTCGCCCGTAGTTGTTTTATTTCTCCCGTTTTCTTCCGGAGTCACCTAGTGCAG”, the binding signal is 13500 fluorescence intensity (a.u.).

For “GGTTGGTAGCTTGATCAATATAGGCCTACTAAATTTTTCCCGGAGTCACCTAGTGCAG”, the binding signal is 9100 fluorescence intensity (a.u.).

Consider “ATATACTCCCTCCTTCCCTAAATGTTTGACGCCGTTGACTCGGAGTCACCTAGTGCAG”, for which the binding signal is 11400 fluorescence intensity (a.u.).

Regarding “TACCTTGCATTGTTATTGAATATTTGGTTTATGCTTTACTCGGAGTCACCTAGTGCAG”, the binding signal is 8680 fluorescence intensity (a.u.).

“CCTTACGAATACACACACGCTACCGCCAAATTTTGCCCACCGGAGTCACCTAGTGCAG”: the binding signal is 8330 fluorescence intensity (a.u.).

For the sequence “ATCTAGGTTCTTTCATCTTTTTTTTTCTTTTTTTGTTAAACGGAGTCACCTAGTGCAG”, the binding signal was 10800 fluorescence intensity (a.u.).

Turning to “ATCGCCATAACACGGTCTTTCACTACAACAGATTGGTAACCGGAGTCACCTAGTGCAG”, the binding signal was 8640 fluorescence intensity (a.u.).

“CATTGCACGTAAACGAACATTTCTGCACTCAGCAAGCACACGGAGTCACCTAGTGCAG”: the binding signal is 8510 fluorescence intensity (a.u.).

“CGTACTATATTATATGCATACACTTCTCTCAATGCAGCTCCGGAGTCACCTAGTGCAG”: the binding signal was 11100 fluorescence intensity (a.u.).

Regarding “GCAACGTTTGACCACTTGTCTTATTTAATTTTTTTTTGCACGGAGTCACCTAGTGCAG”, the binding signal was 9340 fluorescence intensity (a.u.).

With “TTGAGAGTTCTTTGCTTTTGAAGATTCACCTGTTCCTTTCCGGAGTCACCTAGTGCAG”, the binding signal is 9440 fluorescence intensity (a.u.).

In the case of “ATCGGTGTCATCCCCAATCCTTGCCTCCGAGCCTAGTCCTCGGAGTCACCTAGTGCAG”, the binding signal is 9630 fluorescence intensity (a.u.).

On to “CACACGATTTTGCTATCCCGCAGTCCGCGCGCGCACCCGTCGGAGTCACCTAGTGCAG”, for which the binding signal was 10300 fluorescence intensity (a.u.).

In the case of “ACCCACTTATCGCGCATGCAGGGGAGGAGGGGATCGAATCCGGAGTCACCTAGTGCAG”, the binding signal is 10600 fluorescence intensity (a.u.).

Regarding “GAGACGAATCTGTTAAGCCTAATTTAGTGCAGCACTTATACGGAGTCACCTAGTGCAG”, the binding signal is 8780 fluorescence intensity (a.u.).

Regarding “TTTTTCTAACTAACAGTTCAGTTATCTGATTGTACTGAATCGGAGTCACCTAGTGCAG”, the binding signal was 8290 fluorescence intensity (a.u.).

Turning to “GCATTGATAAGTATTTCTTCCGTTTCATATTATAAGTCGTCGGAGTCACCTAGTGCAG”, the binding signal was 10200 fluorescence intensity (a.u.).

Take “CACTTTCAACCCATATCTACCGTCCGTCTCCATCTGACACCGGAGTCACCTAGTGCAG”: the binding signal was 8990 fluorescence intensity (a.u.).

On to “AACGGTCATTCCTATATTTTTCCTGTGTTTTGCAATCCTCCGGAGTCACCTAGTGCAG”, for which the binding signal was 8070 fluorescence intensity (a.u.).

As to “TCTTGCCTCGCGCCGCCTCCGGCCGACCGCCGCGCTCCACCGGAGTCACCTAGTGCAG”, the binding signal was 8360 fluorescence intensity (a.u.).

As for “GTACTAGATCTTTCATCAGTTTTGTCGGTTTACGCTGTATCGGAGTCACCTAGTGCAG”, the binding signal was 11700 fluorescence intensity (a.u.).

In the case of “TACCAACACAACTACACACTTGTTTACCTAGCTAGATCATCGGAGTCACCTAGTGCAG”, the binding signal is 8710 fluorescence intensity (a.u.).

For the sequence “ACTGTACCTGAGAGTGATTTCCCAACCATTTTTGTTTGACCGGAGTCACCTAGTGCAG”, the binding signal was 9080 fluorescence intensity (a.u.).

As to “ACCTCAAAAATCACGTGTTCTTCGTGCCCAACCGCACCGCCGGAGTCACCTAGTGCAG”, the binding signal was 8620 fluorescence intensity (a.u.).

On to “CTCTCTCTCTCTCTCTCTCTCTCTCTCTCTCTCTCCATCCCGGAGTCACCTAGTGCAG”, for which the binding signal is 13300 fluorescence intensity (a.u.).

Turning to “CACCACACGTCCAGTACCTTCCACGGTCACACACAGAATTCGGAGTCACCTAGTGCAG”, the binding signal was 8440 fluorescence intensity (a.u.).

For “CAACCACCTCATCATCATCATTATAATCAAGATCATTACCCGGAGTCACCTAGTGCAG”, the binding signal is 9830 fluorescence intensity (a.u.).

For “CACCGTCTCCCGCTCCGGCCGCTCCTCCTACTCCGCCGGTCGGAGTCACCTAGTGCAG”, the binding signal is 8640 fluorescence intensity (a.u.).

For “CCAGCACTGTCAGCTTTCCGCCCCTAGCACCGGCGCCGGTCGGAGTCACCTAGTGCAG”, the binding signal was 10300 fluorescence intensity (a.u.).

As for “ATAATTTATACACAACACACACACACACACACATATATATCGGAGTCACCTAGTGCAG”, the binding signal is 8570 fluorescence intensity (a.u.).

For the sequence “TCTCACCCTAGCCGCCGCCGCCTCCTCCTCCTCTCGCCTTCGGAGTCACCTAGTGCAG”, the binding signal is 10500 fluorescence intensity (a.u.).

Turning to “ACTTGTTTATATGATGGATGTATTTTTCAGCCGGCCAAACCGGAGTCACCTAGTGCAG”, the binding signal was 9110 fluorescence intensity (a.u.).

For the sequence “AGTGATTATTGCCGGTCGGCGCCCATAGTTTTTTCCCGCACGGAGTCACCTAGTGCAG”, the binding signal was 10600 fluorescence intensity (a.u.).

“AAATATTTGATGGCAGCAATTGGTTTTTTTTTTCATATTTCGGAGTCACCTAGTGCAG”: the binding signal is 8280 fluorescence intensity (a.u.).

Take “CGGTCTTTGCGTTTCTGTTTATGTATTCTGACCTTATATTCGGAGTCACCTAGTGCAG”: the binding signal was 10300 fluorescence intensity (a.u.).
